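Primary screen of methionyl-tRNA synthetase; the read-out is not stated. Target: Methionyl-tRNA synthetase (putative), Leishmania donovani (UniProt E9BF75). The test concentration is not given. Values are per cent inhibition. Size under these conditions: about 68,000 compounds, about 24 of them at 50% or above in at least one test.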

Protein sequences, listed by entry. Tags and fused reporters are not part of them.
UniProt E9BF75, entry or part of it: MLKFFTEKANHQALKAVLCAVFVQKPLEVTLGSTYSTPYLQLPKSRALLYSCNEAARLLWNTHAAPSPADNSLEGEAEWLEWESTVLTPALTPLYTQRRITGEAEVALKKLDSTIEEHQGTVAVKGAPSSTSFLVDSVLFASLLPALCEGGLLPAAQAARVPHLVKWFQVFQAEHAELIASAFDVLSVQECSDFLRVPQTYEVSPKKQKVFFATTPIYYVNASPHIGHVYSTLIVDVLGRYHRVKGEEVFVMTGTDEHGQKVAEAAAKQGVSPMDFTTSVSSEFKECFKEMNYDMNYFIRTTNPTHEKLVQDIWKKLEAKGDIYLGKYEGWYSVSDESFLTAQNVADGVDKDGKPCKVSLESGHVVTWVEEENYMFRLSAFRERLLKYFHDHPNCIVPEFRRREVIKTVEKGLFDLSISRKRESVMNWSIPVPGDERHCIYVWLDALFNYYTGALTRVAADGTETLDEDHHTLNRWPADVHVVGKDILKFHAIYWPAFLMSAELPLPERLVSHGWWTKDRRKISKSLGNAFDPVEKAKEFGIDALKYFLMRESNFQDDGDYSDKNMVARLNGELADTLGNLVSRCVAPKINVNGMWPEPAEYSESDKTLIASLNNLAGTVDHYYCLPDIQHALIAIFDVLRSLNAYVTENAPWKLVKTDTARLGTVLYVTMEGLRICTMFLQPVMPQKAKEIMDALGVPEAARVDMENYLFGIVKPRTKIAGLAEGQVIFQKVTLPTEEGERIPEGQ

Results are percentages, as filed.
The controls that fix the scale are not given in the record; negative values are as filed.
Compounds were drawn at random from those tested, without regard to their results.

Result for O=C(Nc1ccccc1)NC1CCN(C2CCOC2)CC1 (centres unmarked) was 13.09%.
Result for Cc1noc(C)c1CN1C[C@@H]2CN(C(=O)c3cscn3)C[C@@H]2C1 was 15.57%.
Result for Nc1nc2nc(C3CCCN(C(=O)c4cscn4)C3)ccc2s1 (centres unmarked) was 4.545%.
Result for c1ccc(CN2C[C@H]3CCC[C@@]3(COCC3CCOCC3)C2)nc1 was 9.343%.
Result for Cn1cccc1C(=O)N1C[C@@H]2CCN(c3cccnc3)C[C@@H]2C1 was 7.302%.
Result for COCCN1CCCC2(CCN(c3ncc(Cl)cc3Cl)C2)C1=O (centres unmarked) was 15.46%.
Result for CN(C)Cc1nc(C(=O)N2CCCC(COc3ccc(F)cc3)C2)cs1 (centres unmarked) was 14.09%.
Result for CCN(C1CCN(c2cccc(F)c2C(C)=O)CC1)S(C)(=O)=O was 14.89%.
Result for CCc1cnc(CNc2ccc(C(=O)NCc3ccco3)cc2C)o1 was 9.763%.
Result for O=C(N1CCC(Oc2ccncc2)CC1)C1(c2ccc(F)cc2)CC1 was 18.01%.
Result for CCOc1cccc(CN(Cc2cnn(C)c2)CC(C)C)c1O was 10.03%.
Result for Cc1cc(NC(=O)CN2CCN(C3CCCC3)C(=O)C2)nn1C was -15.7%.
Result for O=C(CCOc1cccc(Cl)c1)N1CCN(c2cnccn2)CC1 was 10.93%.
Result for Cn1cnnc1CNC(=O)c1ccc(Br)cc1O was 18.44%.
Result for CN(C)C(=O)N1CCCn2nc(CNC(=O)CCc3cccs3)cc2C1 was 1.613%.
Result for Cc1cc(N2CCN(Cc3ccc(C)o3)CC2)cc(C)n1 was 17.56%.
Result for Cc1noc(C)c1CCN1CCCC1c1nc2cc(F)ccc2[nH]1 (centres unmarked) was 21.61%.
Result for Fc1ccc(-c2nnc(CN3CCCC3Cn3cncn3)o2)cc1 (centres unmarked) was 6.883%.
Result for CCOC(=O)N1CCN(C(=O)C(CC)n2cccn2)CC1 (centres unmarked) was 13.75%.
Result for COCCNC(=O)CCNc1cc(C)nc(-c2ccncc2)n1 was 29.53%.
Result for CC1CCN(C(=O)C2CCCN(C(=O)Nc3ccccn3)C2)CC1 (centres unmarked) was 2.857%.
Result for O=C(CN1CCOC(c2ccc(Cl)c(Cl)c2)C1)NCc1ccco1 (centres unmarked) was 10.56%.
Result for O=C1NCCCCC1NC(=O)C1(c2cccc(C(F)(F)F)c2)CC1 (centres unmarked) was 15.6%.
Result for Cc1cnn(-c2ccc(S(=O)(=O)N(C)CC(C)(CO)CO)cc2F)c1 was 8.239%.
Result for Cc1csc(C2CCCCN2C(=O)CN(C)C(C)C)n1 (centres unmarked) was 14.21%.
Result for CNS(=O)(=O)c1cccc(C(C)NCc2ccsc2)c1 (centres unmarked) was 6.044%.
Result for Cc1nc(CN2CCCC(CCc3ccc(F)c(F)c3)C2)c[nH]1 (centres unmarked) was 20.33%.
Result for Cn1cc(CN2CC(C(=O)Nc3ccccc3)C3(CCOCC3)C2)cn1 (centres unmarked) was 9.14%.
Result for CC(C)S(=O)(=O)N1C[C@@H](c2ccccc2)[C@H]2[C@H]1CCCCCN2C was 22.78%.
Result for CN1CC(=O)N(c2ccsc2)CC12CCN(Cc1cnn(C)c1)C2 (centres unmarked) was 16.88%.
Result for CN(C)C(=O)CN1CCC2(CCN(S(=O)(=O)C3CC3)CC2)C1=O was 12.89%.
Result for COC1CCN(S(=O)(=O)NCC2COc3ccccc3C2)CC1 (centres unmarked) was 14.44%.
Result for CC(=O)N1CCCC1c1cc(N2CCN(CC3CC3)CC2)cc(C)n1 (centres unmarked) was 8.235%.
Result for O=C(COCc1ccccc1Cl)Nc1ccnn1CC1CCOC1 (centres unmarked) was 5.915%.
Result for Cc1csc(N2CCN(CC(=O)N3CCCC3)CC2C)n1 (centres unmarked) was 11.11%.
Result for COc1ccc(C2CCCN2c2nnc(C)s2)c(OC)c1 (centres unmarked) was 12.24%.
Result for CCN(C(=O)CN1CCCC1c1ccc(F)cc1)c1ccccc1C (centres unmarked) was 16.49%.
Result for COC(CNC(=O)c1ccc[nH]1)c1cccc(Cl)c1 (centres unmarked) was 19.03%.
Result for c1cnc2c(c1)cc([C@H]1CCCO1)n2CCN1CCCCC1 was 3.082%.
Result for O=C1NCCCC[C@@H]1Nc1ccc(-c2nc(C3CC3)no2)cn1 was 13.19%.
Result for COCCN1CCN(C(=O)c2ccc(C)cc2F)[C@H]2CS(=O)(=O)C[C@H]21 was 7.444%.
Result for N#Cc1ccccc1N1CCCN(C(=O)CCc2cccs2)CC1 was 2.41%.
Result for Cc1cc(C)c(CNC(=O)C(C)Oc2ccccc2F)c(=O)[nH]1 (centres unmarked) was 16.95%.
Result for CN(C)S(=O)(=O)c1ccc(=O)n(CC2CCCO2)c1 (centres unmarked) was 8.123%.
Result for Cc1ccccc1N1CC(C)N(C(=O)CCn2cccn2)CC1=O (centres unmarked) was 0.6873%.
Result for CC(C)c1csc(C(=O)N(C)c2ccc(Br)cn2)n1 was 1.087%.
Result for c1cnn(CCCO[C@@H]2CN(C3CCOCC3)[C@@H]3CCCO[C@@H]32)c1 was 7.397%.
Result for Cn1ccc(N2CCCC(NC(=O)c3ccc(Cl)o3)C2=O)n1 (centres unmarked) was 12.39%.
Result for CC(C)c1ncc2c(n1)CN(Cc1nc(-c3cccnc3)no1)CC2 was 22.22%.
Result for c1cc2c(cc1-n1nc(C3CC3)nc1-c1csnn1)OCCO2 was 5.943%.
Result for CN(C)c1cc2c(nn1)CCN(C(=O)c1cc3ccccc3[nH]c1=O)C2 was 14.64%.
Result for CCOc1ncccc1CNS(=O)(=O)N1CCOCC1 was 1.375%.
Result for COCCCN1C(=O)CC[C@H]2CN(c3nc4ccccc4s3)CC[C@H]21 was 8.04%.
Result for CCC1c2cccn2CCN1S(=O)(=O)N1CCOCC1 (centres unmarked) was 5.938%.
Result for Cc1cc2c(cc1Cl)C=CC1(CCN(C(=O)N3CCOCC3)CC1)O2 was 9.748%.
Result for COCCNC(=O)N1CCSC2(CCCCC2)C1 was 11.19%.
Result for CN1CCN(C(=O)c2cc(-c3cnc(N4CCCC4)nc3)cn2C)CC1 was 15.85%.
Result for Cc1nc(CN2CC[C@@H](OCC3CC3)[C@@H]2Cc2cccnc2)cs1 was 18.78%.
Result for O=C(c1ccncc1)N1C[C@@H]2OCCN(CCN3CCCC3)[C@@H]2C1 was 17.41%.

The first 3 entries again:

{"structure": "O=C(Nc1ccccc1)NC1CCN(C2CCOC2)CC1", "stereo": "centres unmarked", "Inhibition": 13.09}
{"structure": "Cc1noc(C)c1CN1C[C@@H]2CN(C(=O)c3cscn3)C[C@@H]2C1", "Inhibition": 15.57}
{"structure": "Nc1nc2nc(C3CCCN(C(=O)c4cscn4)C3)ccc2s1", "stereo": "centres unmarked", "Inhibition": 4.545}

Measurements from “University of Dundee, Small-Polar-MMV Screening Library” (2021), ChEMBL document CHEMBL3988442.